According to patent US11299715B2, “Use of iNOS inhibitors to increase viral yield in culture” (priority 2013, dated 2022):
At least one structure is not confirmed: it was looked up by name or label, or the drawing left a doubt.

Tested on: d27-1/GFP HSV-1
Test: Effect of dexamethasone on d27-1/GFP HSV-1 viral titer in V27 cells
Type: cell-based
Conditions: dex pretreatments or treatments, n=2

C[C@@H]1C[C@H]2[C@@H]3CCC4=CC(=O)C=C[C@]4(C)[C@@]3(F)[C@@H](O)C[C@]2(C)[C@@]1(O)C(=O)CO [dexamethasone]
final titers of d27-1/GFP HSV-1 compared to untreated control: slightly elevated
